# Data from US5756491A, “Antiviral cobalt-organic compounds” (priority 1991, dated 1998).
# At least one read-out could not be matched to a standard name with certainty.
# Experiments:
# [1] = test system: HSV-1 McKrae Strain; experiment: Intracellular antiviral activity against HSV-1 in HFF monolayers; assay type: cell-based; conditions: Experiment 7 (Table 19)
# Protocol: (§1) HSV-1 McKrae Strain was diluted to a final concentration of 10^5 PFU/ml in minimal essential medium (MEM). Hereinafter, this dilution is referred to as the HSV-1 Suspension for convenience.
# (§2) With sufficient stirring, all the compounds completely dissolved.
# HFF cell monolayers were inoculated with the HSV-Suspension prepared as above by absorption for thirty minutes at 37° C. After absorption of the virus, the inoculum was aspirated from the cell monolayers and the HSV-1 infected monolayers were rehydrated with medium containing the appropriate concentration of the solution of the compound by adding 500 microliters of each compound concentration to triplicate HSV-1 infected monolayers. All monolayers were incubated at 37° C. The developing HSV-1 cytopathology was monitored daily for two days by inverted light microscopy and titers were calculated by multiple […] analysis. For the intracellular anti-viral activity, "cell monolayer controls" were obtained using sham inoculated non-treated HFF cell monolayers along with the drug treated monolayers. "Positive controls" were obtained by using HSV-1 inoculated non-CTC compound treated HFF monolayers.
# [2] = test system: HSV-1 McKrae Strain; experiment: Direct virucidal efficacy against HSV-1 on HFF monolayers; assay type: cell-based
# Protocol: as §1, §2
# Each of the drug solutions were mixed with the HSV-1 Suspension in a 1:1 ratio. The drug and HSV-1 Suspension mixture was incubated at 37° C. for thirty minutes with agitation every ten minutes. After the incubation, fifty microliter aliquots were overlaid onto triplicate confluent human foreskin fibroblast (HFF) cell monolayers. The inoculum was absorbed for thirty minutes and then a medium containing the appropriate drug concentration in MEM was added to the monolayers to a final volume of 0.5 milliliters per culture-well. The monolayers were incubated at 37° C. The developing HSV-1 Cytopathology was monitored daily for two days by inverted light microscopy. Titers were calculated by multiple regression analysis. All data is presented as the average PFU/ml reduction at 24 and/or 48 hours after inoculation (PI).
# 1. HSV-1 inoculated, non-compound treated HFF monolayers were included as "positive controls"; and […]
structure (smiles),measurement,setting,value
"CC1=CC(C)=[N+]2CC[N+]3=C(C)C=C(C)[O][Co-3]23([NH3+])([NH3+])[O]1.[Cl-] [Compound 23, reference compound]",effective virucidal concentration IC50,[1],100 µg/mL
same,effective virucidal concentration IC50,[2]; Experiment 1 (Table 3),10 µg/mL
same,effective virucidal concentration IC50,[2]; Experiment 2 (Table 6),100 µg/mL
same,effective virucidal concentration IC50,[2]; Experiment 6 (Table 17),10 µg/mL
